Assay results: the supplement of paper PMC10849652
This is one part of the list.

Sequences of proteins named here, by UniProt entry; tags and fusion partners are left off. A change or cut given only in a name is not applied to a line headed by its entry.
UniProt Q8IXU6: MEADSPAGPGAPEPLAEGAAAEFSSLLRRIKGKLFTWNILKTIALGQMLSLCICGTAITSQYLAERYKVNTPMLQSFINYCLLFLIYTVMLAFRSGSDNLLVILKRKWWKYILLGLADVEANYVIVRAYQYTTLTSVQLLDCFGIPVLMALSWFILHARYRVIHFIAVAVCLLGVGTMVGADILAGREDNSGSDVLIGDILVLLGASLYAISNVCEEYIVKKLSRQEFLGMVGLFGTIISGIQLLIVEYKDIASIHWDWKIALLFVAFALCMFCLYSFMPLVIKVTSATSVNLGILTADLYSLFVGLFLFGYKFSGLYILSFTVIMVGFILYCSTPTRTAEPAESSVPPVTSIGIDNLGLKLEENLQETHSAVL
UniProt Q8TB61: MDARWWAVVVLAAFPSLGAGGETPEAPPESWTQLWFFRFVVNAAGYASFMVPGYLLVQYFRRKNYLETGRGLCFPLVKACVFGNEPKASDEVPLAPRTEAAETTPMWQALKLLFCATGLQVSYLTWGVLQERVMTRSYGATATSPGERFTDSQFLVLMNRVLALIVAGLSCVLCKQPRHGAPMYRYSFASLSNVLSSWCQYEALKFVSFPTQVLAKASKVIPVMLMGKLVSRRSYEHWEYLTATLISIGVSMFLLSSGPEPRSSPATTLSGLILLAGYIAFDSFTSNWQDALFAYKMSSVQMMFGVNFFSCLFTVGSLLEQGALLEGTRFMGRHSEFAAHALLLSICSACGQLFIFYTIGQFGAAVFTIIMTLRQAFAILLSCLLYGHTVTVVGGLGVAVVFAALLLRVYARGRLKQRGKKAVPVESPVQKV
UniProt Q14542: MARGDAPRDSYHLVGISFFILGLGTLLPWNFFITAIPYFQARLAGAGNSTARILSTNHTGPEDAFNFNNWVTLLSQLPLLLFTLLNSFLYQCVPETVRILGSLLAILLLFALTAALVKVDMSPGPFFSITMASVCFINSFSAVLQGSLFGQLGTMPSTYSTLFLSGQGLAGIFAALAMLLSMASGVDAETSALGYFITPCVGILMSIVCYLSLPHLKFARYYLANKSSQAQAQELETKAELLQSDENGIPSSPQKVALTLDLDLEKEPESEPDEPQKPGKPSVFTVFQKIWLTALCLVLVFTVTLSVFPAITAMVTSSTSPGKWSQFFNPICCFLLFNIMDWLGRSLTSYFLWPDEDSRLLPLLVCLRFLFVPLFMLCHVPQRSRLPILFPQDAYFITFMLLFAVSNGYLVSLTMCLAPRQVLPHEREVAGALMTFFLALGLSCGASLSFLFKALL
UniProt P30825: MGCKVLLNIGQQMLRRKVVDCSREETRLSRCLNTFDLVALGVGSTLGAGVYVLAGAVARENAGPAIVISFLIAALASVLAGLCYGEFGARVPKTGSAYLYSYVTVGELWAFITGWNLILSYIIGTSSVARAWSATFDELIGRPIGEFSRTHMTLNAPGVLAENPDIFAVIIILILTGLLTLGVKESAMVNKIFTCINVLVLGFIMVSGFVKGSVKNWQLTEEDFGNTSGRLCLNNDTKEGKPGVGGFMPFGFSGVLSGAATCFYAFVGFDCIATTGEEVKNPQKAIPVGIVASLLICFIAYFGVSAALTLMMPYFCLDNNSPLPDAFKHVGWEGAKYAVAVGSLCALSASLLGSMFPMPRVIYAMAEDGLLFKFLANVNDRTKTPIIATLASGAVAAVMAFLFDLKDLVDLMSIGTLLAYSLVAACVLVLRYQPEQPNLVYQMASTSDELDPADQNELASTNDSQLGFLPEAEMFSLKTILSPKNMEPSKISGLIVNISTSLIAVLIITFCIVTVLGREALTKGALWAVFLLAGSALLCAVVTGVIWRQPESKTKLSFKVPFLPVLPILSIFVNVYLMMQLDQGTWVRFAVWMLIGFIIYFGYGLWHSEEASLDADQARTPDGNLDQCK
UniProt Q96BI1: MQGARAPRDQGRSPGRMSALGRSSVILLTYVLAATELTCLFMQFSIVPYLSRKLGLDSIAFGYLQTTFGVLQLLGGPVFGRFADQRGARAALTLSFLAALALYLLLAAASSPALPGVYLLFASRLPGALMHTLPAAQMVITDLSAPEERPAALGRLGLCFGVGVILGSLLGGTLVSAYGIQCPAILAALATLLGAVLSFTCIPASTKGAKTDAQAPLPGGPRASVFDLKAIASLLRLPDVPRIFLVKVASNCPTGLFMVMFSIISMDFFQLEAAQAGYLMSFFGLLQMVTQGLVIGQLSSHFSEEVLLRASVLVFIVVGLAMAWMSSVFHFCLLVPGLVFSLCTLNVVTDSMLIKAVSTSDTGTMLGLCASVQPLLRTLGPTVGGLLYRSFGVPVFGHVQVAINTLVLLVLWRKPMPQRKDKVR
UniProt Q9H1N7: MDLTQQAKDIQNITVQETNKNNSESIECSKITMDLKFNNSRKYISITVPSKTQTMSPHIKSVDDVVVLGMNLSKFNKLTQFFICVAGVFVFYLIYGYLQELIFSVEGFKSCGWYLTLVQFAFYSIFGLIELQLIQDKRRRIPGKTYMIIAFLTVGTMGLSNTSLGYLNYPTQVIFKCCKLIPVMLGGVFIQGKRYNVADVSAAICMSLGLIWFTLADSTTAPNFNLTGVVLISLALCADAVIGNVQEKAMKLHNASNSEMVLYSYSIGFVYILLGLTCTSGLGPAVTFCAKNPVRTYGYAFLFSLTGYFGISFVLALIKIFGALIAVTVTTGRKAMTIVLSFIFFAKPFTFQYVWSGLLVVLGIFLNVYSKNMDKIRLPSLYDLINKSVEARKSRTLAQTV
UniProt P55011: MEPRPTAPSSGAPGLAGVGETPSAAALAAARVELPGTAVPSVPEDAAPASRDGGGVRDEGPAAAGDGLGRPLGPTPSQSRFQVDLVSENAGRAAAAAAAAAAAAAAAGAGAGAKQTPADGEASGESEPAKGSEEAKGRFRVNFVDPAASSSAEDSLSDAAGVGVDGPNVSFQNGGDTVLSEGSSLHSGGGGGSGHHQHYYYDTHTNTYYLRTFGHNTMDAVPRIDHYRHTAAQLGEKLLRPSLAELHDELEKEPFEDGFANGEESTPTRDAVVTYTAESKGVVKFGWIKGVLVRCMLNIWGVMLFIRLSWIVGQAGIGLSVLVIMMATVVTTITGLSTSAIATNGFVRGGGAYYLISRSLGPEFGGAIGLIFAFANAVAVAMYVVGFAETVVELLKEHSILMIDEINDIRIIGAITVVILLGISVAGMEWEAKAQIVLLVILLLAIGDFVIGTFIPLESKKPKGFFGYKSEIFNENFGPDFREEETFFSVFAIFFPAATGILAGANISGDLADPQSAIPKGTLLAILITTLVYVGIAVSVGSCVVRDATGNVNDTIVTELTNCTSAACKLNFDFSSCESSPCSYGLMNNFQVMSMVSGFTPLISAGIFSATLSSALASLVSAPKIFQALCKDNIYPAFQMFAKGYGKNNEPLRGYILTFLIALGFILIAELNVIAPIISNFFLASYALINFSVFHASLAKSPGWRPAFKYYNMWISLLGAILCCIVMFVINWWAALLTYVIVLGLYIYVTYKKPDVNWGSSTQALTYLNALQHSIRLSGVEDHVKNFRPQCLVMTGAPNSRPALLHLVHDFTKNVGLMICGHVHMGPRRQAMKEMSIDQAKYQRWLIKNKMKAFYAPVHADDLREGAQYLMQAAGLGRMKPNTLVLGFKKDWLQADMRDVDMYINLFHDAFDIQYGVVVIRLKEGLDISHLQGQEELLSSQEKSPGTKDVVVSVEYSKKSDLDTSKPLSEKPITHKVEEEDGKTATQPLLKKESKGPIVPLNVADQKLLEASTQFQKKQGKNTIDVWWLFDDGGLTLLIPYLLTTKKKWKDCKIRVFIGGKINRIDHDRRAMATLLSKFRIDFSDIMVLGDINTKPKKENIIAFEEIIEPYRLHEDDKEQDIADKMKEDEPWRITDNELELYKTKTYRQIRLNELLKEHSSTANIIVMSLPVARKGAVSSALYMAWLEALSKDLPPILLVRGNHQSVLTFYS
UniProt Q9H1U9: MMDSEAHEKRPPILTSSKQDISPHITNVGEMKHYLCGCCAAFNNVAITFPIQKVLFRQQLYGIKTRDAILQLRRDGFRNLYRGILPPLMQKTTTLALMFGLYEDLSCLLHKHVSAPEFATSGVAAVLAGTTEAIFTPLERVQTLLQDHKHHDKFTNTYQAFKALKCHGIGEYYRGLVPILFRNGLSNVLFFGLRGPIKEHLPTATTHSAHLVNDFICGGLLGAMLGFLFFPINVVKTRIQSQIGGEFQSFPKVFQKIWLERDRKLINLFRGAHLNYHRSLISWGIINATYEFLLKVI
UniProt Q70HW3: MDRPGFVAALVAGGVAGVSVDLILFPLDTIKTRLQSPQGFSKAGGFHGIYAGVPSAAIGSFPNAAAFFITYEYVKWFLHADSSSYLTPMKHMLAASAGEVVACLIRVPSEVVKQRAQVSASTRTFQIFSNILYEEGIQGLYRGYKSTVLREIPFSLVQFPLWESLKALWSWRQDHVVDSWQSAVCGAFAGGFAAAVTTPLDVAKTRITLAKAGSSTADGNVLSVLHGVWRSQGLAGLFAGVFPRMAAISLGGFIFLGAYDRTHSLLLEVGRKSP
UniProt Q8TAD4: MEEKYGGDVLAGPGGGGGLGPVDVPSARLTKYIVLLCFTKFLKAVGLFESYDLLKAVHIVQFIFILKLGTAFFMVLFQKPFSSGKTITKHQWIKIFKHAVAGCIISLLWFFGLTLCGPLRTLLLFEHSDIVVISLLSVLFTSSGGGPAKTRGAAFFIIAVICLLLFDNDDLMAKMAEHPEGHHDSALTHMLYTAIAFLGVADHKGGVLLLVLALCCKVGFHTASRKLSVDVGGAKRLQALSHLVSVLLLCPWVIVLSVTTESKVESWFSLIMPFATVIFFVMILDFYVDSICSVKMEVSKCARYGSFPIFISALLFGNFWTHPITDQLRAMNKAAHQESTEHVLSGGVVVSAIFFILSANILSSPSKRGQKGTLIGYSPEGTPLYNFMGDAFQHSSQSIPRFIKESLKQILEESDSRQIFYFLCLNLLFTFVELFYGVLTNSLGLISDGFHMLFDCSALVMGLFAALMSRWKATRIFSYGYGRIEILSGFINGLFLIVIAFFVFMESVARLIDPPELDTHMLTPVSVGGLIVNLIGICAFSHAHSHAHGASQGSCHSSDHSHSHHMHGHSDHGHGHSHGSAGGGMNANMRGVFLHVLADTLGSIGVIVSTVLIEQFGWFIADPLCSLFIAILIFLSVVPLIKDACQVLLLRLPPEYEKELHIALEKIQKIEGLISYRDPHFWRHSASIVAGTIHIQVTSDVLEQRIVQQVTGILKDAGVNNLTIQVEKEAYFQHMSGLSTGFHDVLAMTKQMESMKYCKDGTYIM
UniProt Q9BZD2: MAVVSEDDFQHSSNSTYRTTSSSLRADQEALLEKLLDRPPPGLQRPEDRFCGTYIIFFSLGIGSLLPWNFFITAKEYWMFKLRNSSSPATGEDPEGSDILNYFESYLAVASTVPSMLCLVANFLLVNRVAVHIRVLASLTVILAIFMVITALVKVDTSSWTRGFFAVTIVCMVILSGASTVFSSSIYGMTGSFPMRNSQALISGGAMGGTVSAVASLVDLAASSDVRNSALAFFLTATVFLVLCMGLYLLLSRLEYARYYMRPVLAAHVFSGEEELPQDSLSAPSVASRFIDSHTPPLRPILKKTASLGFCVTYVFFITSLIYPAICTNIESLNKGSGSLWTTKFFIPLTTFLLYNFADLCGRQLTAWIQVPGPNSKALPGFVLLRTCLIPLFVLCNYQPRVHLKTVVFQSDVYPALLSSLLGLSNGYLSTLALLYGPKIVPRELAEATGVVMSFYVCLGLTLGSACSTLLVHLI
UniProt Q14493, whole entry, looked up: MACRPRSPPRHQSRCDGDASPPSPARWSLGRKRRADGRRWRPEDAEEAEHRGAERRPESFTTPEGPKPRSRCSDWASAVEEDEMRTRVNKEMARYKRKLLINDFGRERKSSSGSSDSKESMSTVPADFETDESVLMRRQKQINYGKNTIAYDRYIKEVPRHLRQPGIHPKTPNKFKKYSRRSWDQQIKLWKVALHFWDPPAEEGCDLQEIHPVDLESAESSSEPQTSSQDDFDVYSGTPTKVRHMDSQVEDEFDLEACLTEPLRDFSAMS
UniProt Q6XR72: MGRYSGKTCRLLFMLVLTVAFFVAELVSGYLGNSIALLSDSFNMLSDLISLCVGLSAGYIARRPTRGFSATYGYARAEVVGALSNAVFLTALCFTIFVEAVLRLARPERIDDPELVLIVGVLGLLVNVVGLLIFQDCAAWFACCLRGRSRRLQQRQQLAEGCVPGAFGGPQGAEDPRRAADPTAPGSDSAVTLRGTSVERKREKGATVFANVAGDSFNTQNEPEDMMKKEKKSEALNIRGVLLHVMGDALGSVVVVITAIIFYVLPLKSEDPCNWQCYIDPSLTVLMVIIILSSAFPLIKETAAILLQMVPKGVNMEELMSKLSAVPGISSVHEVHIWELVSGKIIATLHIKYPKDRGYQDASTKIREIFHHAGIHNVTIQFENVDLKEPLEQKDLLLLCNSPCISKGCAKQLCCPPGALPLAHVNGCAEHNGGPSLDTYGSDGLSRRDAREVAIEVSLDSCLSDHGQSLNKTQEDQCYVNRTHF

Columns and labels:
Experiment in all cases: log2 fold change, soluble protein after heating vs DMSO (PISA); higher = thermal stabilisation; K562 cells, 10 uM, 30 min; active = over 0.2 and 3.5 SD of the protein, either way, in both replicates (recomputed)
[1] = compound: CS(=O)(=O)c1ccc(-c2cnc(N)c(C(=O)Nc3ccccc3)n2)cc1
Outline: (§1)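 Quantification of soluble protein used TMTpro 16plex LC-MS/MS, with channel sums equalised. Samples were the supernatant after 21,000xg for 90 min of pooled aliquots from K562 cells (2×10^6 cells/mL) treated with 10 μM compound for 30 min, heated for 3 min over 48°C-58°C, and extracted in PBS with 0.5% NP-40 at 4°C. Values, from duplicates, describe thermal stability against control samples on a log2 fold-change scale.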

[2] = compound: C[C@@H](Oc1cc(-c2cnn(C3CCNCC3)c2)cnc1N)c1c(Cl)ccc(F)c1Cl [crizotinib]
Outline: as §1

[3] = compound: C[C@@H]1COCCN1C2=NC(=NC(=C2)C3(CC3)S(=O)(=O)C)C4=C5C=CNC5=CC=C4
Outline: as §1

[4] = compound: C[C@H](C1=CC=C(C=C1)C(=O)NC2=C3C=CNC3=NC=C2)N
Outline: as §1

[5] = compound: C[C@H](Nc1ncnc2nc[nH]c12)c1cc2cccc(Cl)c2c(=O)n1-c1ccccc1 [duvelisib]
Outline: as §1

[6] = compound: Cc1cc(Nc2cc(CN3CCOCC3)c3nc(C)c(Cc4ccc(Cl)cc4F)n3n2)n[nH]1 [gandotinib]
Outline: as §1

[7] = compound: Cc1cc(Nc2cc(N3CCN(C)CC3)nc(Sc3ccc(NC(=O)C4CC4)cc3)n2)n[nH]1 [tozasertib]
Outline: as §1

[8] = compound: Cc1cc(SCc2sc(-c3ccc(C(F)(F)F)cc3)nc2C)ccc1OCC(=O)O
Outline: as §1

[9] = compound: Cc1ccc(-n2nc(C(C)(C)C)cc2NC(=O)Nc2ccc(OCCN3CCOCC3)c3ccccc23)cc1 [doramapimod]
Outline: as §1

[10] = compound: Cc1ccc(C(=O)N(CCCN)[C@@H](c2nc3cc(Cl)ccc3c(=O)n2Cc2ccccc2)C(C)C)cc1 [ispinesib]
Outline: as §1

[11] = compound: Cc1ccc(NC(=O)c2ccc(CN3CC[C@H](N(C)C)C3)c(C(F)(F)F)c2)cc1Nc1nccc(-c2cncnc2)n1 [bafetinib]
Outline: as §1

[12] = compound: Cc1cccc(CC(=O)N2CCc3c2ccc(-c2cn(C)c4ncnc(N)c24)c3F)n1
Outline: as §1

[13] = compound: Cc1cn(-c2cc(NC(=O)c3ccc(C)c(Nc4nccc(-c5cccnc5)n4)c3)cc(C(F)(F)F)c2)cn1 [nilotinib]
Outline: as §1

[14] = compound: Cc1nc(Nc2n[nH]c3c2CN(C(=O)N[C@H](CN(C)C)c2ccccc2)C3(C)C)c2sccc2n1
Outline: as §1

[15] = compound: Cc1nc(Nc2ncc(C(=O)Nc3c(C)cccc3Cl)s2)cc(N2CCN(CCO)CC2)n1 [dasatinib]
Outline: as §1

[16] = compound: Cc1ncc(-c2ccnc(Nc3ccc(S(C)(=O)=O)cc3)n2)n1C(C)C
Outline: as §1

[17] = compound: Cn1cc(-c2ccc3c(c2)CCN3C(=O)Cc2cccc(C(F)(F)F)c2)c2c(N)ncnc21
Outline: as §1

[18] = compound: Cn1cc(-c2ccc3nnc(C(F)(F)c4ccc5ncccc5c4)n3n2)cn1
Outline: as §1

[19] = compound: Cn1cncc1[C@@](N)(c1ccc(Cl)cc1)c1ccc2c(c1)c(-c1cccc(Cl)c1)cc(=O)n2C [tipifarnib]
Outline: as §1

[20] = compound: FC(F)(F)c1ccc(/C=C/c2nc(COc3ccc(CCCCn4ccnn4)cc3)co2)cc1 [mubritinib]
Outline: as §1

Target | log2 fold change [1] | log2 fold change [2] | log2 fold change [3] | log2 fold change [4] | log2 fold change [5] | log2 fold change [6] | log2 fold change [7] | log2 fold change [8] | log2 fold change [9] | log2 fold change [10] | log2 fold change [11] | log2 fold change [12] | log2 fold change [13] | log2 fold change [14] | log2 fold change [15] | log2 fold change [16] | log2 fold change [17] | log2 fold change [18] | log2 fold change [19] | log2 fold change [20]
SLC35F2 (UniProt Q8IXU6) | inactive: 0.048 | inactive: 0.121 | inactive: -0.005 | inactive: -0.206 | inactive: 0.059 | inactive: -0.107 | inactive: 0.101 | inactive: -0.059 | inactive: -0.142 | inactive: 0.091 | inactive: -0.015 | inactive: 0.043 | inactive: 0.083 | inactive: -0.004 | inactive: 0.061 | inactive: 0.061 | inactive: 0.012 | inactive: -0.054 | inactive: 0.041 | inactive: 0.027
SLC35B2 (UniProt Q8TB61) | inactive: 0.026 | inactive: -0.017 | inactive: 0.073 | inactive: -0.021 | inactive: 0.024 | inactive: -0.062 | inactive: -0.03 | inactive: -0.02 | inactive: 0.002 | inactive: 0.003 | inactive: -0.069 | inactive: -0.004 | inactive: -0.018 | inactive: 0.004 | inactive: 0.028 | inactive: -0.002 | inactive: 0.011 | inactive: 0.015 | inactive: -0.052 | inactive: 0.008
SLC29A2 (UniProt Q14542) | inactive: 0.02 | inactive: 0.061 | inactive: -0.121 | inactive: -0.133 | inactive: -0.058 | inactive: 0.046 | inactive: -0.165 | inactive: -0.046 | inactive: 0.038 | inactive: 0.02 | inactive: 0.035 | inactive: -0.057 | inactive: 0.049 | inactive: -0.068 | inactive: 0.15 | inactive: 0.031 | inactive: 0.114 | inactive: -0.034 | inactive: 0.029 | inactive: 0.003
SLC16A1 (UniProt P53985) | inactive: 0.037 | inactive: 0.118 | inactive: 0.037 | inactive: -0.025 | inactive: 0.159 | inactive: -0.169 | inactive: -0.038 | inactive: 0.001 | inactive: 0.04 | inactive: 0.068 | inactive: 0.047 | inactive: 0.005 | inactive: 0.092 | inactive: -0.062 | inactive: 0.033 | inactive: 0.03 | inactive: -0.007 | inactive: -0.093 | inactive: -0.025 | inactive: 0.053
SLC7A1 (UniProt P30825) | inactive: 0.044 | inactive: -0.043 | inactive: 0.043 | inactive: -0.078 | inactive: 0.088 | inactive: -0.069 | inactive: -0.014 | inactive: -0.039 | inactive: 0.001 | inactive: -0.119 | inactive: -0.008 | inactive: -0.004 | inactive: 0.009 | inactive: -0.007 | inactive: 0.034 | inactive: 0.004 | inactive: 0 | inactive: -0.013 | inactive: 0.043 | inactive: 0.018
SLC22A18 (UniProt Q96BI1) | inactive: 0.066 | inactive: 0.159 | inactive: 0.077 | inactive: 0.044 | inactive: 0.114 | inactive: -0.018 | inactive: -0.07 | inactive: 0.001 | inactive: 0.015 | inactive: -0.044 | inactive: -0.058 | inactive: -0.112 | inactive: 0.077 | inactive: 0.031 | inactive: -0.04 | inactive: -0.056 | inactive: 0.029 | inactive: 0.015 | inactive: 0.058 | inactive: 0.005
SLC35B3 (UniProt Q9H1N7) | inactive: 0.071 | inactive: -0.011 | inactive: 0.164 | inactive: -0.047 | inactive: 0.069 |  | inactive: 0 | inactive: -0.096 | inactive: 0 | inactive: -0.019 | inactive: -0.007 |  | inactive: 0.047 | inactive: -0.083 | inactive: 0.034 | inactive: -0.099 | inactive: 0.038 | inactive: -0.044 |  | inactive: -0.036
SLC12A2 (UniProt P55011) | inactive: -0.025 | inactive: 0.045 | inactive: 0.015 | inactive: -0.082 | inactive: 0.037 | inactive: -0.043 | inactive: -0.017 | inactive: -0.028 | inactive: -0.004 | inactive: 0.076 | inactive: -0.004 | inactive: 0.046 | inactive: 0.049 | inactive: -0.01 | inactive: 0.013 | inactive: 0.041 | inactive: 0.078 | inactive: -0.008 | inactive: 0.028 | inactive: 0.034
SLC25A51 (UniProt Q9H1U9) | inactive: 0.022 | inactive: 0.033 | inactive: 0.005 | inactive: 0 | inactive: 0.036 | inactive: 0 | inactive: 0.033 | inactive: -0.008 | inactive: 0 | inactive: 0.004 | inactive: -0.09 | inactive: -0.079 | inactive: 0.035 | inactive: 0.007 | inactive: 0.032 | inactive: -0.005 | inactive: 0.018 | inactive: 0.015 | inactive: 0.057 | inactive: 0.017
SLC25A26 (UniProt Q70HW3) | inactive: 0.056 | inactive: -0.037 | inactive: 0.058 | inactive: 0.044 | inactive: 0.007 | inactive: 0.037 | inactive: -0.156 | inactive: -0.067 | inactive: -0.193 | inactive: 0.044 | inactive: 0.033 | inactive: 0.098 | inactive: -0.036 | inactive: -0.126 | inactive: 0.01 | inactive: -0.141 | inactive: 0.004 | inactive: 0.128 |  | inactive: 0.133
SLC4A2 (UniProt P04920) | inactive: 0.114 | inactive: -0.053 | inactive: 0.013 | inactive: 0.126 |  | inactive: -0.075 |  | inactive: -0.058 | inactive: 0.07 | inactive: -0.099 | inactive: -0.101 | inactive: -0.037 | inactive: 0.027 | inactive: -0.165 | inactive: -0.125 | inactive: 0.043 | inactive: 0.023 | inactive: -0.045 | inactive: -0.068 | inactive: 0.029
SLC30A5 (UniProt Q8TAD4) | inactive: -0.036 | inactive: 0.051 | inactive: 0.095 | inactive: -0.001 | inactive: 0.028 | inactive: -0.155 | inactive: -0.05 | inactive: -0.004 | inactive: -0.078 | inactive: -0.024 | inactive: 0.041 | inactive: -0.023 | inactive: -0.09 | inactive: 0.141 | inactive: -0.065 | inactive: -0.017 | inactive: 0.123 | inactive: -0.038 | inactive: -0.03 | inactive: 0.026
SLC19A1 (UniProt P41440) | inactive: -0.097 | inactive: 0.086 | inactive: 0.041 | inactive: -0.088 |  | inactive: -0.107 |  | inactive: 0.012 | inactive: -0.037 | inactive: 0.083 | inactive: 0.11 | inactive: 0.039 | inactive: 0.01 | inactive: 0.012 | inactive: 0.024 | inactive: 0.026 | inactive: 0.103 | inactive: -0.026 | inactive: 0.051 | inactive: 0.074
SLC29A3 (UniProt Q9BZD2) | inactive: 0.014 | active: -0.559 | inactive: -0.098 | inactive: 0.078 |  |  |  | inactive: 0.055 | inactive: 0.015 | active: -1.02 | inactive: -0.111 |  | inactive: -0.055 | inactive: 0.127 | inactive: -0.059 | inactive: 0.012 | inactive: 0.167 | inactive: 0.102 | inactive: 0.035 | inactive: 0.005
SLBP (UniProt Q14493) | inactive: -0.026 | inactive: -0.042 | inactive: 0.132 | inactive: 0.003 |  | inactive: -0.022 |  | inactive: 0.055 | inactive: 0.007 | inactive: -0.063 | inactive: 0.11 | inactive: -0.017 | inactive: -0.05 | inactive: -0.093 | inactive: 0.031 | active: -0.423 | inactive: -0.042 | inactive: -0.033 | inactive: 0 | inactive: -0.023
SLC30A10 (UniProt Q6XR72) | inactive: 0.11 | inactive: 0.192 | inactive: 0.178 | inactive: -0.001 |  | inactive: -0.078 |  | inactive: -0.046 | inactive: 0.035 | inactive: 0.077 | inactive: -0.019 | inactive: -0.148 | inactive: 0.029 | inactive: -0.061 | inactive: 0.016 | inactive: 0.043 | inactive: 0.078 | inactive: -0.026 | inactive: 0.067 | inactive: -0.007

An excerpt from above, limited to log2 fold change [10], log2 fold change [7] and log2 fold change [9].
Target | log2 fold change [10] | log2 fold change [7] | log2 fold change [9]
SLC7A1 (UniProt P30825) | inactive: -0.119 | inactive: -0.014 | inactive: 0.001
SLC30A10 (UniProt Q6XR72) | inactive: 0.077 |  | inactive: 0.035
